Results on 2 sequences are retold here after article PMC3084716.

For data set [1], the target named is PTEN, native from cerebellum (mouse) (UniProt O08586). Briefly: pull-down, immunoblot. The note with it: protein in an extract, label: 5'-biotin or 32P (assay dependent), folded or branched DNA. For orientation: Immunoblotting shows a protein as a band on a membrane.
Data set [2] shares this target. Briefly: aptamer western blot. The note with it: denatured; protein in an extract; label: 5'-biotin or 32P (assay dependent); folded or branched DNA.
The test system of the next data set is GST-Anp32e. The data set is described as follows: filter binding. Particulars: Filter binding: 50 mM Tris (pH not given), 1 h, 40 µl, protein 0.5 mg/ml (Fig. 2E: GST-PTEN 25 µM), PBS washes; co-precipitation 1 h at room temperature, 1 µM aptamer; recombinant protein; protein details: GST; label: 5'-biotin or 32P (assay dependent); folded or branched DNA.

Construct, isoform or probe ends are uncertain for at least one entry. For some assays here: Negatives hold for the conditions tested. For some assays here: At least one result comes from cells or an extract, where the contact may be indirect.

For “CGGAATTCCGAGCGTGGGCGTGAGCCCTAAACACAAGTCCGCAGGGGTGTGGTAATATTCGCAGTTGTGTGTACGCCCACGCTCGAG [PTENz14]”, the binding result in data set [1] (depletes PTEN from cytoplasmic fraction) and in data set [2] was “binds” throughout.

Turning to “CGGAATTCCGAGCGTGGGCGTGGTCATACCGCGCCTATCGAACTCGCCACTCGCGTGCAGCTCTGTGTAGGTACGCCCACGCTCGAG [PTENz7]”, the binding result was “binds” in data set [1] (depletes PTEN from nuclear fraction), “binds” in data set [2] and “no binding” with GST-Anp32e.
